Results: the supplement of paper PMC12819154, “High-throughput peptide-centric local stability assay extends protein–ligand identification to membrane proteins, tissues and bacteria” (Nature Structural & Molecular Biology, 2025)
The list shows a part of the results, in another mix than the full data. Most entries show no effect beyond the scatter of the controls.

Sequences of proteins named here, by UniProt entry; tags and fusion partners are left off. A change or cut given only in a name is not applied to a line headed by its entry.
UniProt P31460: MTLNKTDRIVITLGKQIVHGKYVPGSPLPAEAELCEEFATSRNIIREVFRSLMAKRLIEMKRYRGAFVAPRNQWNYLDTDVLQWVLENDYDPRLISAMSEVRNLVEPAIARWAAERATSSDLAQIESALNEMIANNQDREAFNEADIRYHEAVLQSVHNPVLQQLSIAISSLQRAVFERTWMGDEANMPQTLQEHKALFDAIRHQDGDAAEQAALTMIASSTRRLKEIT
UniProt P31697: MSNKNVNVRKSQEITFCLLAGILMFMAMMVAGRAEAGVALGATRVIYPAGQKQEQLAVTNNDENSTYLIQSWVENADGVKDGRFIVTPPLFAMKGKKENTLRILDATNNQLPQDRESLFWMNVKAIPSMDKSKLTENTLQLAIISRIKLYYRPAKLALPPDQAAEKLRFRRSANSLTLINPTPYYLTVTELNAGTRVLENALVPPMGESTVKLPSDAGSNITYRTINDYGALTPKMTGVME
UniProt P36677: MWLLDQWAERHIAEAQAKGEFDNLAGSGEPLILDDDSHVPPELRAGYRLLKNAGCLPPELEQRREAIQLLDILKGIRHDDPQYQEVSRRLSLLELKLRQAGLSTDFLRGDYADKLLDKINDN
UniProt P32153: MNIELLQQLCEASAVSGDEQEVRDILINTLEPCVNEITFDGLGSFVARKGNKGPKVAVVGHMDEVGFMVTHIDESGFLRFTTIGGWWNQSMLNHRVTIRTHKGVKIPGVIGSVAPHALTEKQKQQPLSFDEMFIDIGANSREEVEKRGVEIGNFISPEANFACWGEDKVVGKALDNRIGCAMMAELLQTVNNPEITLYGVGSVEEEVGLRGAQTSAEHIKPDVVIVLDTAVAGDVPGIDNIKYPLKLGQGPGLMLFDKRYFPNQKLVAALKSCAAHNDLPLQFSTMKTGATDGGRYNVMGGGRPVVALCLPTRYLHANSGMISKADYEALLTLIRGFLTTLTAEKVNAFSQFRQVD
UniProt P31979: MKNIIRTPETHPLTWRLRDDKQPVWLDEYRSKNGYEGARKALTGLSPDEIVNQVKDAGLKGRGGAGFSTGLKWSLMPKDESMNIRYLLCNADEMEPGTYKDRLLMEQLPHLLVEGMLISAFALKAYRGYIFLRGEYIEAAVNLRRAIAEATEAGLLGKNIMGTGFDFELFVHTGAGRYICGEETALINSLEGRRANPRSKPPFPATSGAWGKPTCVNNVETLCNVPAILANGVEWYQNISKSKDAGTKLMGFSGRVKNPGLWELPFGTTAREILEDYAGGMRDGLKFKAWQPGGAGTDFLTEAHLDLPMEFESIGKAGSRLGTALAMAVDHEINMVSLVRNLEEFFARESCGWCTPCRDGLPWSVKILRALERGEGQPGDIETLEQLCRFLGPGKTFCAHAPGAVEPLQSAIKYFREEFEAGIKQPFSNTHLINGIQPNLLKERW
UniProt P37590: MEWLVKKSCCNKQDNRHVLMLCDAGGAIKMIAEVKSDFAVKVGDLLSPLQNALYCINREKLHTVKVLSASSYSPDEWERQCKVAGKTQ
UniProt P33020: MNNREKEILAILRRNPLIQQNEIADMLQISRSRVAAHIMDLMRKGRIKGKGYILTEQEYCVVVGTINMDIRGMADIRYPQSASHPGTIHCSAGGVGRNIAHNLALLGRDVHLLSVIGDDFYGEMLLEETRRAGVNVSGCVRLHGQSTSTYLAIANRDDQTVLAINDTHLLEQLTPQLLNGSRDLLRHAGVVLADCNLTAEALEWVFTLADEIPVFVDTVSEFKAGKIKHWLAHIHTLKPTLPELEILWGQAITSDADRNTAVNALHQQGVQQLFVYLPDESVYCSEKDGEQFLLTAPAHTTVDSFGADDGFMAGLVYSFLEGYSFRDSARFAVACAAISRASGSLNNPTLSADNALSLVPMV
UniProt P31131: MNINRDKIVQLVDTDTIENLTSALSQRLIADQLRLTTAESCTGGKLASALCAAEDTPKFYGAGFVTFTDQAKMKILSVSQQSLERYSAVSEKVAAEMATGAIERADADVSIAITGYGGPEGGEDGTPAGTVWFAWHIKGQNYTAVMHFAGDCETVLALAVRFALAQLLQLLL
UniProt P32681: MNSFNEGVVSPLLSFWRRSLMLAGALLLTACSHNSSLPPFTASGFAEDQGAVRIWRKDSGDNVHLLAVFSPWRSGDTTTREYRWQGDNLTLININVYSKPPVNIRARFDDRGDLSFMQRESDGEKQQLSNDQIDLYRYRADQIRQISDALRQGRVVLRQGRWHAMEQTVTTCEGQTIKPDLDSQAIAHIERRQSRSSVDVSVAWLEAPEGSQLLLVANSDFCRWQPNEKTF
UniProt P36881: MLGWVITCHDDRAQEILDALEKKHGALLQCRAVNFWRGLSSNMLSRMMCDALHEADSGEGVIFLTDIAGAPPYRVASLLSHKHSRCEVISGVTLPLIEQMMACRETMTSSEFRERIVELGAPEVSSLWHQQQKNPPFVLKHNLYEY
UniProt P37657, whole entry: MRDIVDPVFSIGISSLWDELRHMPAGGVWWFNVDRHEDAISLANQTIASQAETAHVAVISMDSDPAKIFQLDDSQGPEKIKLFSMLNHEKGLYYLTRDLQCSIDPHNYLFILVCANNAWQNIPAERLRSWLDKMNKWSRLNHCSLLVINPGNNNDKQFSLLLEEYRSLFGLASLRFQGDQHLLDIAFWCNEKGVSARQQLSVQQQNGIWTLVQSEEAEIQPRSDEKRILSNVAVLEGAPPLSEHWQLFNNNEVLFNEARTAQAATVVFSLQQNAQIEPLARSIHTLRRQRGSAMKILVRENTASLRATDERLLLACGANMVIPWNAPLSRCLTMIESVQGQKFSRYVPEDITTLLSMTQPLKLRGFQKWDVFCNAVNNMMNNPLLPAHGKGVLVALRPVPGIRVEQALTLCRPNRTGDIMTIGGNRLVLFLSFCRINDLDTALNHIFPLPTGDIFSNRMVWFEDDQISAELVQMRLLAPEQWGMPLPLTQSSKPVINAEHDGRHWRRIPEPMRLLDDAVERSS
UniProt P38134: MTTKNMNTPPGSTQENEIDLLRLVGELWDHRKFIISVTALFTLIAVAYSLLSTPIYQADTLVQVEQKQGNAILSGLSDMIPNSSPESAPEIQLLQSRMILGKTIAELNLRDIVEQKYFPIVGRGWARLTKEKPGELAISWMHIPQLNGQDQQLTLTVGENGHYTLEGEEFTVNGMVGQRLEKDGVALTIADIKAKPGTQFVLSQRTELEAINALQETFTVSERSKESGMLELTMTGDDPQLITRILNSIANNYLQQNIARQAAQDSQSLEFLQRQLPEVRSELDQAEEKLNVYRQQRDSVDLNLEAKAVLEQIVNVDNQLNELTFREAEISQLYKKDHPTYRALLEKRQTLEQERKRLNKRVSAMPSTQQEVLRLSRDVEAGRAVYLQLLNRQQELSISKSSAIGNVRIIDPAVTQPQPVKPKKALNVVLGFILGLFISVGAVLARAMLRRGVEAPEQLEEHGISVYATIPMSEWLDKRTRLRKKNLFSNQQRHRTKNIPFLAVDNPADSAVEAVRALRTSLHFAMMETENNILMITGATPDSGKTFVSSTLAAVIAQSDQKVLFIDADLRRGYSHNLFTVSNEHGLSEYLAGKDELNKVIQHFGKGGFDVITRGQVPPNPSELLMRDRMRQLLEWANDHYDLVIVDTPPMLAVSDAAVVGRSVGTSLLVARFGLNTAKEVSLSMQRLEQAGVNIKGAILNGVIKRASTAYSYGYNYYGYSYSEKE
UniProt P37690: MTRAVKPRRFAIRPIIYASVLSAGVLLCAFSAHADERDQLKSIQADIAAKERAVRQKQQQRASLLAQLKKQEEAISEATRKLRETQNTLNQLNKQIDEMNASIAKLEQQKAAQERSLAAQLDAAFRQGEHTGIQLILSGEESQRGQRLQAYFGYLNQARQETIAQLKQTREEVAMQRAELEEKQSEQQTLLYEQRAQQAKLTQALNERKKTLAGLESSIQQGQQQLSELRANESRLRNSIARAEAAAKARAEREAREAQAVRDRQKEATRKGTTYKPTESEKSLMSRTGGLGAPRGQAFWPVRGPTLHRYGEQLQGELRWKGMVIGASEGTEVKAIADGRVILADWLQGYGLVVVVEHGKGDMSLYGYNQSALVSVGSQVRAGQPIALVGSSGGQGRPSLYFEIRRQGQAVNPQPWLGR
UniProt P37325: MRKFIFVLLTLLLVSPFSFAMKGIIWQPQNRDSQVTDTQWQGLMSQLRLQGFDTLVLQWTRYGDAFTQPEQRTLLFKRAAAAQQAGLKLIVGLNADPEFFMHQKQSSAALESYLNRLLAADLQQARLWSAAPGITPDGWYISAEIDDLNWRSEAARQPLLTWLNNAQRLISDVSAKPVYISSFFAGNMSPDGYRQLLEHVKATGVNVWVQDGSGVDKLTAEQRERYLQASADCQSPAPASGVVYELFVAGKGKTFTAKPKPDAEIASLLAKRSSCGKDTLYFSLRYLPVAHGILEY
UniProt P33230: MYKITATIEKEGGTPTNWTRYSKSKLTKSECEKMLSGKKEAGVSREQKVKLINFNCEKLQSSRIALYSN
UniProt P32108: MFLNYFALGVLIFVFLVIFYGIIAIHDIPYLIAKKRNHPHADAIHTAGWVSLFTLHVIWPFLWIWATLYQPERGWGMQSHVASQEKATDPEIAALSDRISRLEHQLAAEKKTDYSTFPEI
UniProt P32685: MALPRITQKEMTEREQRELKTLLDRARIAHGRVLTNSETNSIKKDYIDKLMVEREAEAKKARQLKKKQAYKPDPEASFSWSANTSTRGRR
UniProt P33025: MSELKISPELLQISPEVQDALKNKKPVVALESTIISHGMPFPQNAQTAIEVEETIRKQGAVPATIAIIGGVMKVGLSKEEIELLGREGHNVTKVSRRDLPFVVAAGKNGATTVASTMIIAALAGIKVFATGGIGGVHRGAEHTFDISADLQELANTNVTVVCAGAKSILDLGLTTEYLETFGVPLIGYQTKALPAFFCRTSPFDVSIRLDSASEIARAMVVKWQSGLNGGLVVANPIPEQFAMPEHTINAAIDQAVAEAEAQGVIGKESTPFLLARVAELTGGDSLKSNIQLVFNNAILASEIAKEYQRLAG
UniProt P33666: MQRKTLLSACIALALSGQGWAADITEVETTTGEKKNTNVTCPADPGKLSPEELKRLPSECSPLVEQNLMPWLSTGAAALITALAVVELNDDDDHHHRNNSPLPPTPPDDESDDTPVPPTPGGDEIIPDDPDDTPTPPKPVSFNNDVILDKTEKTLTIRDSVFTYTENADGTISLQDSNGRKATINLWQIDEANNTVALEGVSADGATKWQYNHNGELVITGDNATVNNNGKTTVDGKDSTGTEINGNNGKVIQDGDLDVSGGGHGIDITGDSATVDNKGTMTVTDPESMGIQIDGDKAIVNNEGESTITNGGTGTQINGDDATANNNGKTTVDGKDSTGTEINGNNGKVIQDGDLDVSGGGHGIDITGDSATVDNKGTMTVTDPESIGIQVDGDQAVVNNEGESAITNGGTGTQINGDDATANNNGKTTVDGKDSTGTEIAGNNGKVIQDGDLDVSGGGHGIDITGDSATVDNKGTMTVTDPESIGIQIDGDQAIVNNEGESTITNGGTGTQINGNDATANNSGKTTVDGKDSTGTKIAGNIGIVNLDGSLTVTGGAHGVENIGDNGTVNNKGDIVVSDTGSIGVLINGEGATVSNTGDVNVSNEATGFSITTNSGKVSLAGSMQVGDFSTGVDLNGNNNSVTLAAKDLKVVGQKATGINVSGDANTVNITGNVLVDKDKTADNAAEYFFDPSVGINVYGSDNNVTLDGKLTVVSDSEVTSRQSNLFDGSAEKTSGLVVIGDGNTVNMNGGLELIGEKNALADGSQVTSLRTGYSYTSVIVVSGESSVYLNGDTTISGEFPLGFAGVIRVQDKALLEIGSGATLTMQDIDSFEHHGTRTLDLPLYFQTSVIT
UniProt P33634: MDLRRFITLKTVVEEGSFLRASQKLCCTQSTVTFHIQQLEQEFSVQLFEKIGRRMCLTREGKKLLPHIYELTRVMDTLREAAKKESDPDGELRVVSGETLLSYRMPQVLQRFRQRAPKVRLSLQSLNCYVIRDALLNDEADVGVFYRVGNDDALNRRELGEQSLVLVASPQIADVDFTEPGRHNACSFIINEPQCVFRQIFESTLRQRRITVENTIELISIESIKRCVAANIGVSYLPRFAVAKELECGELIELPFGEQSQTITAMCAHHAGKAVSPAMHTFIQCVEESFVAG
UniProt P31447: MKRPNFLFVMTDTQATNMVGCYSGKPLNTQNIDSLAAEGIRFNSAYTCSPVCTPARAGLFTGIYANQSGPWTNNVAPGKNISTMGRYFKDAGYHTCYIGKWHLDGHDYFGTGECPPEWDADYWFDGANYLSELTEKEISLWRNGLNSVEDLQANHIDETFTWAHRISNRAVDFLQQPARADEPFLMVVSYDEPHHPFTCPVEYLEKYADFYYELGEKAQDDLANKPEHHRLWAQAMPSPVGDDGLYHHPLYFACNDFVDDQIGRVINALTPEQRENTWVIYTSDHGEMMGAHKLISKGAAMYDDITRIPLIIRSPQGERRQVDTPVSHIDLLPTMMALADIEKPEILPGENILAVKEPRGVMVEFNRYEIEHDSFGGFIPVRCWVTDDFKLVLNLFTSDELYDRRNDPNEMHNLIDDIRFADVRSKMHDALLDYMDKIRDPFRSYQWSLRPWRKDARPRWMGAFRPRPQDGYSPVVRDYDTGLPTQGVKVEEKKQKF

These targets were tested with Nc1ncnc2c1ncn2[C@@H]1O[C@H](COP(=O)(O)OP(=O)(O)OP(=O)(O)O)[C@@H](O)[C@H]1O [adenosine 5'-triphosphate] (assay: log2 fold change of tryptic peptide abundance, ligand vs vehicle (limited proteolysis) (log2 ratio); higher = more trypsin-susceptible (destabilized)). Details: ligand concentration: 5 mM; sample: E. coli desalted lysate; replicate design: treated before aliquoting.
Experimental: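 HT-PELSA: desalted E. coli K-12 BW25113 lysate (with 12 mM MgCl2) incubated with 5 mM ATP (pH 7) or water for 30 min at 25 C, then a 4 min trypsin pulse at 22 C. Peptides were quantified by DIA-MS (4 replicates). Value is the peptide log2 fold change (treated/control); negative = stabilized. Scale: negative = ligand-stabilized region.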
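Further: lysate desalted by size exclusion to strip endogenous ATP, peptide intensities built from DIA-NN precursor signals, and peptides missing any value discarded before comparison.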

| Target | log2 fold change |
| --- | --- |
| UniProt P31806 (peptide sequence: VITPHPGEAAR, peptide start residue: 371) | 0.382 |
| UniProt P39298 (peptide sequence: VIMPDAPDHGSR, peptide start residue: 57) | -0.649 |
| UniProt P31460 (peptide sequence: NLVEPAIAR, peptide start residue: 103) | 0.239 |
| UniProt P31697 (peptide sequence: TINDYGALTPK, peptide start residue: 225) | 0.444 |
| UniProt P36930 (peptide sequence: FQLASAPK, peptide start residue: 79) | 0.0339 |
| UniProt P36677 (peptide sequence: HIAEAQAK, peptide start residue: 11) | -0.474 |
| UniProt P37649 (peptide sequence: LLAAWQER, peptide start residue: 486) | -0.508 |
| UniProt P32153 (peptide sequence: LGQGPGLMLFDKR, peptide start residue: 247) | -1.12 |
| UniProt P31979 (peptide sequence: EILEDYAGGMRDGLKFK, peptide start residue: 272) | -0.234 |
| UniProt P37590 (peptide sequence: HVLMLCDAGGAIK, peptide start residue: 17) | -0.0306 |
| UniProt P37443 (peptide sequence: VALASASRYNAWR, peptide start residue: 682) | 0.14 |
| UniProt P38684 (peptide sequence: DGEPIKLTR, peptide start residue: 152) | 0.457 |
| UniProt P33020 (peptide sequence: EKEILAILR, peptide start residue: 5) | -0.45 |
| UniProt P37641 (peptide sequence: AADFFALPK, peptide start residue: 22) | 0.41 |
| UniProt P31131 (peptide sequence: LTTAESCTGGK, peptide start residue: 35) | -0.336 |
| UniProt P31469 (peptide sequence: NTYPDEMLK, peptide start residue: 97) | 0.213 |
| UniProt P32681 (peptide sequence: FDDRGDLSFMQR, peptide start residue: 108) | -0.0271 |
| UniProt P36881 (peptide sequence: ETMTSSEFR, peptide start residue: 105) | 0.311 |
| UniProt P37657 (peptide sequence: LFSMLNHEK, peptide start residue: 82) | -0.458 |
| UniProt P38134 (peptide sequence: SVGTSLLVAR, peptide start residue: 663) | 1.09 |

Taken from above.
UniProt P36930 (peptide sequence: FQLASAPK, peptide start residue: 79) – log2 fold change: 0.0339
UniProt P38134 (peptide sequence: SVGTSLLVAR, peptide start residue: 663) – log2 fold change: 1.09

(listing goes on)

| Target | log2 fold change |
| --- | --- |
| UniProt P33358 (peptide sequence: TLLVWCGENR, peptide start residue: 211) | -0.422 |
| UniProt P37690 (peptide sequence: YGEQLQGELR, peptide start residue: 310) | 1.02 |
| UniProt P37325 (peptide sequence: TFTAKPKPDAEIASLLAK, peptide start residue: 254) | 0.375 |
| UniProt P33363 (peptide sequence: HFAAYGAVEGGK, peptide start residue: 209) | -0.812 |
| UniProt P36548 (peptide sequence: VVVLDPGHGGIDTGAIGR, peptide start residue: 58) | 0.474 |
| UniProt P32680 (peptide sequence: LLAECEER, peptide start residue: 163) | 0.206 |
| UniProt P33916 (peptide sequence: GEILNCLDR, peptide start residue: 132) | 0.465 |
| UniProt P37330 (peptide sequence: ISSQHIANWLR, peptide start residue: 637) | -0.775 |
| UniProt P33230 (peptide sequence: EGGTPTNWTR, peptide start residue: 11) | -0.323 |
| UniProt P31130 (peptide sequence: QDAAPPPPHAIEDGYR, peptide start residue: 27) | -0.297 |
| UniProt P33013 (peptide sequence: LSDYFHHKA, peptide start residue: 380) | -0.811 |
| UniProt P32108 (peptide sequence: ATDPEIAALSDR, peptide start residue: 87) | 0.254 |
| UniProt P32685 (peptide sequence: VLTNSETNSIK, peptide start residue: 33) | 0.216 |
| UniProt P33025 (peptide sequence: DLPFVVAAGK, peptide start residue: 98) | 0.301 |
| UniProt P37637 (peptide sequence: VYVQAGTPFR, peptide start residue: 769) | 0.552 |
| UniProt P33666 (peptide sequence: DSTGTEINGNNGK, peptide start residue: 238) | -0.0352 |
| UniProt P33634 (peptide sequence: VGNDDALNRR, peptide start residue: 148) | -0.445 |
| UniProt P32674 (peptide sequence: FAISEEDKR, peptide start residue: 101) | 0.714 |
| UniProt P31447 (peptide sequence: DYDTGLPTQGVK, peptide start residue: 478) | -0.51 |
| UniProt P33219 (peptide sequence: GKSADIHYQVSVDCK, peptide start residue: 95) | 0.298 |
